# Reference: the supplement of paper PMC8166895
# Values joined by “and” are separate entries in the source; they are usually repeats but may differ in a detail not shown here. Equal entries are not always repeated. Structures can show the parent of a compound that is named as a salt. Some of the results follow. Most values lie at the level of the controls, where differences are scatter.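 Melting temperature was read by differential scanning fluorimetry in a single-replicate pilot screen of a library of approved drugs and clinical or known-target compounds. Compounds raising the melting point by at least 2 °C were the top stabilizing hits, and negative shifts mean destabilization.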
# System: SARS-CoV-2 main protease (Mpro, nsp5)
# Test: thermal shift ΔTm of Mpro relative to plate average Tm; higher = stronger thermal stabilization of Mpro (binding)
# Settings: 10 µM; protein concentration 1 µM
row,SMILES,thermal shift ΔTm of Mpro
1,CCCC(C)NC(=O)c1ccc(Cl)c(Cl)c1 (stereo not given),-0.148 °C
2,Nc1ccc(S(=O)(=O)Nc2ncccn2)cc1 [Sulfadiazine],0.0493 °C
3,C=CCc1cc(OC)c(O)c(C(=O)NCCO)c1 [Alibendol],0.0751 °C
4,O=C(NC[C@H](O)CN1CCc2ccccc2C1)c1ccnc(NC2CCC2)c1,-0.0939 °C
5,Oc1cc(O)cc(/C=C/c2ccccc2)c1 [Pinosylvin],-0.000424 °C
6,COc1cc(/C=C/C(=O)O[C@H]2[C@H](O)[C@@H](CO)O[C@@]2(CO)O[C@H]2O[C@H](CO)[C@@H](O)[C@H](O)[C@H]2O)cc(OC)c1O [Sibiricose A6],-0.0775 °C
7,C#C[C@]1(O)CC[C@H]2[C@@H]3CCC4=CC(=O)CC[C@@H]4[C@H]3CC[C@@]21C [Norethindrone],0.0631 °C
8,COc1ccc2c(c1)/C(=C/c1cnc[nH]1)C(=O)N2,-0.206 °C
9,CCOc1cn(-c2ccc(F)cc2C)nc1C(=O)Nc1ccc(Oc2ccnc3cc(OC)c(OC)cc23)c(F)c1,-0.135 °C
10,N[C@@H]1CCCN(c2c(/C=C3\SC(=O)NC3=O)cccc2-c2ccccc2)C1,-0.0207 °C
11,CCC1(c2cccc(O)c2)CCCCN(C)C1 (stereo not given) [Meptazinol HCl],0.198 °C
12,CO[C@H]1C[C@@H]2CC[C@@H](C)[C@@](O)(O2)C(=O)C(=O)N2CCCC[C@H]2C(=O)O[C@H]([C@H](C)C[C@@H]2CC[C@@H](O)[C@H](OC)C2)CC(=O)[C@H](C)/C=C(\C)[C@@H](O)[C@@H](OC)C(=O)[C@H](C)C[C@H](C)/C=C/C=C/C=C/1C [Rapamycin (Sirolimus)],-0.644 °C
13,COc1ccc(-c2oc3c(CC=C(C)C)c(O[C@@H]4O[C@H](CO)[C@@H](O)[C@H](O)[C@H]4O)cc(O)c3c(=O)c2O[C@@H]2O[C@@H](C)[C@H](O)[C@@H](O[C@@H]3O[C@H](CO)[C@@H](O)[C@H](O)[C@H]3O)[C@H]2O)cc1 [Epimedin A1],-0.0258 °C
14,CCOc1ccccc1C(N)=O [Anovigam],0.0381 °C
15,C[C@@H]1CC[C@H]2[C@@H](C)C(=O)O[C@@H]3O[C@@]4(C)CC[C@@H]1[C@]32OO4 [Artemisinin],0.173 °C
16,CN(C)CC1CCOC1(c1ccccc1)c1ccccc1 (stereo not given) [Anavex 2-73],0.0776 °C
17,O=[N+]([O-])c1cc(C(F)(F)F)cc([N+](=O)[O-])c1NNC(=S)Nc1ccc(F)cc1,0.335 °C
18,COc1cc2ncnc(Nc3ccc(Cl)cc3F)c2cc1OC,-0.0416 °C
19,Oc1ccc(Nc2nc(-c3ccc(Cl)cc3)cs2)cc1,0.347 °C
20,CNC(=O)c1c(C)oc2cc(Oc3ncnc4cc(OC)c(OC)cc34)ccc12 [Fruquintinib],0.153 °C
21,CC(C)(O)c1nc(-c2cccc(CNC(=O)c3cnc(-c4ccccn4)nc3)c2)no1,-0.0235 °C
22,N#Cc1ccc2[nH]c(O)c(-c3ccc(CN4CCOCC4)cn3)c2c1,-0.153 °C
23,Cc1ccc(C(=O)NCCCCCC(=O)Nc2ccccc2N)cc1,0.104 °C
24,CCN(CC)CCCC(C)Nc1c2ccc(Cl)cc2nc2ccc(OC)cc12 (stereo not given) [Quinacrine 2HCl],-0.107 °C
25,Cc1ccc(O)cc1.Cc1cccc(O)c1.Cc1ccccc1O [Cresol],-0.0238 °C
26,Cc1nc(C)c(Cl)c(O)c1Cl [Clopidol],0.157 °C
27,CCCCCCCCCCCCCCCC[N+](C)(C)CCN(Cc1ccc(OC)cc1)c1ncccn1 [Thonzonium Bromide],-0.332 °C

# Four successive entries out of the list so far, for reference:
row,SMILES,thermal shift ΔTm of Mpro
4,O=C(NC[C@H](O)CN1CCc2ccccc2C1)c1ccnc(NC2CCC2)c1,-0.0939 °C
5,Oc1cc(O)cc(/C=C/c2ccccc2)c1 [Pinosylvin],-0.000424 °C
6,COc1cc(/C=C/C(=O)O[C@H]2[C@H](O)[C@@H](CO)O[C@@]2(CO)O[C@H]2O[C@H](CO)[C@@H](O)[C@H](O)[C@H]2O)cc(OC)c1O [Sibiricose A6],-0.0775 °C
7,C#C[C@]1(O)CC[C@H]2[C@@H]3CCC4=CC(=O)CC[C@@H]4[C@H]3CC[C@@]21C [Norethindrone],0.0631 °C

# (next part)

row,SMILES,thermal shift ΔTm of Mpro
1,CC(C)(C)NS(=O)(=O)c1cncc(-c2cc(F)c3nc(N)nn3c2)c1,-0.0848 °C
2,O=C(O)P(=O)(O)O [Foscarnet Sodium],-0.0185 °C
3,CC(C)NCC(O)c1ccc(NS(C)(=O)=O)cc1 (stereo not given) [Sotalol],0.0245 °C
4,C#C[C@]1(O)CC[C@H]2[C@@H]3CCc4cc(OC)ccc4[C@H]3CC[C@@]21C [Mestranol],0.127 °C
5,CN(C)C(=O)c1ccc(S(=O)(=O)c2ccc(NC(=O)[C@@](C)(O)C(F)(F)F)c(Cl)c2)cc1,-0.295 °C
6,COc1cc(C=O)ccc1O [Vanillin],-0.0824 °C
7,C1=N/C2=N/c3ccc(OCCN4CCCC4)c(c3)COC/C=C/COCc3cccc(c3)C(=C1)N2 [Pacritinib (SB1518)],-0.241 °C
8,COc1ccc2cccc(CCNC(C)=O)c2c1 [Agomelatine],0.111 °C
9,Cc1c(Cl)c(OCC(=O)N2CCN(C)CC2)nc2sc(C(=O)NC3CC3)c(N)c12,-0.175 °C
10,CNc1ncc2cc(-c3cc(NC(=O)NCCC(C)(C)C)c(F)cc3C)c(C)nc2n1,0.0611 °C
11,"Cc1[nH]c(/C=C2\C(=O)Nc3ccccc32)c(C)c1CCC(=O)O [TSU-68 (SU6668, Orantinib)]",0.248 °C
12,CC(C)c1cnn2c(NCc3ccccc3-n3cccn3)nc(OC3CCCNC3)nc12 (stereo not given),0.215 °C
13,CNCC(O)c1ccc(O)c(O)c1 (racemic) [DL-Adrenalin],-0.107 °C
14,CN(CCOc1ccc(NS(C)(=O)=O)cc1)CCc1ccc(NS(C)(=O)=O)cc1 [Dofetilide],0.0498 °C
15,CC(=O)N1CCN(c2ccc(OCC3COC(Cn4ccnc4)(c4ccc(Cl)cc4Cl)O3)cc2)CC1 (stereo not given) [Ketoconazole],0.385 °C
16,O=c1c(-c2ccc(O)cc2)coc2cc(O)cc(O)c12 [Genistein],0.396 °C
17,CN1CC[C@@]23CCCC[C@@H]2[C@@H]1Cc1ccc(O)cc13 [Dextrorphan tartrate],0.0239 °C
18,OCc1ccc(-c2ccc(-c3ccc(CO)s3)o2)s1,-0.0446 °C
19,Cc1c(-c2ccc(N3CCc4cccc(C(=O)Nc5nc6ccccc6s5)c4C3)nc2C(=O)O)cnn1CC12CC3CC(CC(C3)C1)C2,-0.358 °C
20,O=C(O)c1ccc(Nc2ncc3c(n2)-c2ccc(Cl)cc2C(c2c(F)cccc2F)=NC3)cc1,0.193 °C
21,Clc1cc2c(NC3CCCC3)nnc(-c3ccncc3)c2cc1Cl,-0.126 °C
22,Cc1cc(N2CCOCC2)ccc1Nc1nc(NC2CCCCC2)c2[nH]cnc2n1,-0.368 °C
23,C[C@H](NC(=O)Cc1cc(F)cc(F)c1)C(=O)N[C@@H]1C(=O)N(C)c2ccccc2-c2ccccc21,-0.103 °C
24,CSc1cccc(Nc2ncc3cc(-c4c(Cl)cccc4Cl)c(=O)n(C)c3n2)c1,-0.0659 °C
25,O=C(NC1CCCCC1)N(Cc1ccccc1)CC1CCNCC1,0.0723 °C
26,CC(C)(C)c1ccc(S(=O)(=O)Nc2ccc(-n3ccnc3)cc2)cc1,-0.00392 °C
27,Cc1cc(-c2nc(-c3ccc(OC(F)(F)F)cc3)no2)nn1Cc1ccnc(N2CCN(C3CC3)CC2)c1,0.224 °C

row,SMILES,thermal shift ΔTm of Mpro
1,Cc1ccc2c(Nc3ccc(Cl)cc3)nccc2c1Nc1ncccc1-c1ncnc2nc[nH]c12 [B-Raf inhibitor 1],0.338 °C
2,COC(=O)[C@H]1[C@H]2C[C@@H]3c4[nH]c5cc(OC)ccc5c4CCN3C[C@H]2C[C@@H](OC(=O)c2cc(OC)c(OC)c(OC)c2)[C@@H]1OC [Reserpine],-0.179 °C
3,COc1cc2c(cc1OC)-c1cc3ccc(OC)c(OC)c3c[n+]1CC2 [Palmatine chloride],-0.034 °C
4,C=CCc1ccc(O)c(-c2ccc(O)c(CC=C)c2)c1 [Honokiol],0.268 °C
5,O=C(O[C@@H]1Cc2c(O)cc(O)cc2O[C@@H]1c1cc(O)c(O)c(O)c1)c1cc(O)c(O)c(O)c1 [(-)-Epigallocatechin Gallate],0.609 °C
6,N#Cc1ccc2ncnc(NC3CCC(N4CCOCC4)CC3)c2c1 (stereo not given),0.0414 °C
7,CCN(CC)CCN(Cc1ccc(-c2ccc(C(F)(F)F)cc2)cc1)C(=O)Cn1c(SCc2ccc(F)cc2)nc(=O)c2c1CCC2,0.121 °C
8,CC[C@H]1CN2CCc3cc(OC)c(OC)cc3[C@@H]2C[C@@H]1C[C@H]1NCCc2cc(OC)c(OC)cc21 [(+)-Emetine dihydrochloride hydrate],-0.109 °C
9,N#C[C@@H]1CCCN1C(=O)CNC12CC3CC(CC(O)(C3)C1)C2 [Vildagliptin (LAF-237)],0.0692 °C
10,Cc1nc(Nc2n[nH]c3c2CN(C(=O)N[C@H](CN(C)C)c2ccccc2)C3(C)C)c2sccc2n1,0.0251 °C and 0.103 °C
11,CCn1cc(-c2ccnc3[nH]c(-c4cccc(CN(C)C)c4)cc23)c(-c2ccc(NC(=O)N(C)C)cc2)n1,-0.245 °C
12,CCOc1ccn(-c2ccc(F)cc2)c(=O)c1C(=O)Nc1ccc(Oc2ccnc(N)c2Cl)c(F)c1,-0.124 °C
13,CCC(=O)NS(=O)(=O)c1ccc(-c2c(-c3ccccc3)noc2C)cc1 [Parecoxib],0.0279 °C
14,CCN(CC)CCNC(=O)c1ccc(NC(C)=O)cc1 [Acecainide],0.234 °C
15,CCN(CC)CCNC(=O)c1ccc(NC(C)=O)cc1 [Acecainide hydrochloride],-0.00244 °C
16,C[C@@H]1CN(Cc2ccc(F)cc2)CCN1C(=O)COc1ccc(Cl)cc1NC(N)=O,0.258 °C
17,CNC[C@H](O)c1cccc(O)c1 [Phenylephrine HCl],-0.0477 °C
18,OC[C@H]1O[C@@H](OCCc2ccc(O)cc2)[C@H](O)[C@@H](O)[C@@H]1O [Salidroside],-0.0122 °C
19,COc1cc(CNC(=O)CCCC/C=C\C(C)C)ccc1O [Zucapsaicin],0.262 °C
20,COC(=O)c1ccc2c(c1)[nH]c1ncnc(NCCCN3CCCCC3)c12,-0.247 °C
21,C[C@H]1[C@H](NC(=O)/C(=N\OC(C)(C)C(=O)O)c2csc(N)n2)C(=O)N1S(=O)(=O)O [Aztreonam],0.56 °C
22,CC(C)S[C@@H]1O[C@H](CO)[C@H](O)[C@H](O)[C@H]1O,-0.0989 °C
23,Cc1cccc([C@H](C)c2c[nH]cn2)c1C [Dexmedetomidine HCl (Precedex)],0.118 °C
24,Cc1cccc([C@H](C)c2c[nH]cn2)c1C [Dexmedetomidine],0.102 °C
25,CCc1c2c(nc3ccc(OC(=O)N4CCC(N5CCCCC5)CC4)cc13)-c1cc3c(c(=O)n1C2)COC(=O)[C@]3(O)CC [Irinotecan HCl Trihydrate],-0.109 °C
26,CCc1c2c(nc3ccc(OC(=O)N4CCC(N5CCCCC5)CC4)cc13)-c1cc3c(c(=O)n1C2)COC(=O)[C@]3(O)CC [Irinotecan],0.168 °C
